Reference: publication PMC7409263
No constants are given. Whether binding was seen depends on the method and setting. Binding seen in cells or lysates may run through a third protein. Here binding means that the protein was enriched with, or labelled near, the bait; the list need not be complete.

By UniProt entry, the sequences of proteins in these tests, tags left out. Where a name states a change or a piece, a line headed by the entry shows the natural chain unless it says otherwise.
UniProt Q6DJK5: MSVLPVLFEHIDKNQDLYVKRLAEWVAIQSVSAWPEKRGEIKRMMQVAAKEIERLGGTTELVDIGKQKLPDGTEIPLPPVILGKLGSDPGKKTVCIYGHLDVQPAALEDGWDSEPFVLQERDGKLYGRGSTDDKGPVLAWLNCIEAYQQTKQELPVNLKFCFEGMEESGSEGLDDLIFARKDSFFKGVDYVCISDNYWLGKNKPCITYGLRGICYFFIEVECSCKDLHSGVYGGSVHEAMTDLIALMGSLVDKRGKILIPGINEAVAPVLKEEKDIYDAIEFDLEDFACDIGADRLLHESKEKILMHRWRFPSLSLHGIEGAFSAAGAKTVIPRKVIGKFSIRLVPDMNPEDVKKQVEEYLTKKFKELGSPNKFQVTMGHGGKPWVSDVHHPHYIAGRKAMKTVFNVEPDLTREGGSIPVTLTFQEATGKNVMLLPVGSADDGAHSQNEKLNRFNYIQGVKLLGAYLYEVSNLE
UniProt Q7ZTL1: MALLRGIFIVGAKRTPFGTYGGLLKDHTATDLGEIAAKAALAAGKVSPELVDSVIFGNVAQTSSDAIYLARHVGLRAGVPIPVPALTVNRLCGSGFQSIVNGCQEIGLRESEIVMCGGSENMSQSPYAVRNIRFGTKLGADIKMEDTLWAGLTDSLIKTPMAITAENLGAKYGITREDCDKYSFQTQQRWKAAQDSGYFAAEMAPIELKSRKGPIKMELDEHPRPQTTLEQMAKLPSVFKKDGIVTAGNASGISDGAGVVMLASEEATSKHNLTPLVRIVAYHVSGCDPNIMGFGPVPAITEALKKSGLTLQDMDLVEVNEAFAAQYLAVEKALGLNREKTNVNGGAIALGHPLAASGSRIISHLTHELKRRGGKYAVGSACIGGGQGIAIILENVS
UniProt Q7ZY16: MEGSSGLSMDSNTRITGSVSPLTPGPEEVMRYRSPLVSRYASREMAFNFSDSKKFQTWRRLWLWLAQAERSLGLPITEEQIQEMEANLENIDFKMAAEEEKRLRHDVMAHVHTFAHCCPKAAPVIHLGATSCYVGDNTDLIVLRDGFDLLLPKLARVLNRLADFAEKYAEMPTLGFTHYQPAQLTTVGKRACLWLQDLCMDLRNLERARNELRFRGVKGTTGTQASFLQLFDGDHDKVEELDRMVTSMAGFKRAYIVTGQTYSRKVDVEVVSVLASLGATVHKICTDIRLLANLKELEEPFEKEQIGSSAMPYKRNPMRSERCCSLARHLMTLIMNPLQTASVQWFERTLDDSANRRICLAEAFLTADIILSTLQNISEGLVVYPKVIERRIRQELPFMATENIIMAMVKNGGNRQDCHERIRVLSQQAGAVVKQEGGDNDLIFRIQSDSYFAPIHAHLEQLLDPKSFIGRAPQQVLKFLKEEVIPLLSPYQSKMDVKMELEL
UniProt Q6GQA7: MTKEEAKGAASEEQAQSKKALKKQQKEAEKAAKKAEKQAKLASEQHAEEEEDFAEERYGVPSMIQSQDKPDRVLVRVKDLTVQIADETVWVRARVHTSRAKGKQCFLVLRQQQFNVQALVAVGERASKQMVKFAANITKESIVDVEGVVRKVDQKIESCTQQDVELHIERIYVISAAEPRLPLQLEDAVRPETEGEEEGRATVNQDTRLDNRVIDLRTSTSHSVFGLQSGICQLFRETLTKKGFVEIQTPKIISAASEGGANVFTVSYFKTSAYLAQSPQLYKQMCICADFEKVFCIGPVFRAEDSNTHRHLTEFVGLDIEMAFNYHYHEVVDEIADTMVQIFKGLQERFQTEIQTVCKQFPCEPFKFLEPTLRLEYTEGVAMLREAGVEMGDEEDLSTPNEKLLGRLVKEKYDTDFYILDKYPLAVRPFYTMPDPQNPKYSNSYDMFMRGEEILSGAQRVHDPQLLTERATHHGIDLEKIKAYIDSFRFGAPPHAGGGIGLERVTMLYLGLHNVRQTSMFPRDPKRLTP
UniProt A0A8J0U0U7: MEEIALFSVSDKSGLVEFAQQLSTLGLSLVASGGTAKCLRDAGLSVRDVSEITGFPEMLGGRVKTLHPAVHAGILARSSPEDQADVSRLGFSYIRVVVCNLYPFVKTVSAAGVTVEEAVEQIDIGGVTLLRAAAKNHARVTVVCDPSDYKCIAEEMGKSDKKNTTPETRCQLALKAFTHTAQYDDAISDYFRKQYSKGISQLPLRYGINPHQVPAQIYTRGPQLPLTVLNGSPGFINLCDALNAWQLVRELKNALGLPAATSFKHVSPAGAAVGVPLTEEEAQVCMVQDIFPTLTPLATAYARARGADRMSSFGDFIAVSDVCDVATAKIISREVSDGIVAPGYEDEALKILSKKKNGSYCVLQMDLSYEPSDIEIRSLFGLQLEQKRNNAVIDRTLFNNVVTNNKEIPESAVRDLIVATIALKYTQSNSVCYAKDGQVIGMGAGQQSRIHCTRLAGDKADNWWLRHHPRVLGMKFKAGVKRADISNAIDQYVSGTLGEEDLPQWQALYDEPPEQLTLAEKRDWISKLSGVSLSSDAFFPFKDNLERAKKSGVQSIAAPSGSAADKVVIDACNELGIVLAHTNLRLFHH
UniProt B1WBE0: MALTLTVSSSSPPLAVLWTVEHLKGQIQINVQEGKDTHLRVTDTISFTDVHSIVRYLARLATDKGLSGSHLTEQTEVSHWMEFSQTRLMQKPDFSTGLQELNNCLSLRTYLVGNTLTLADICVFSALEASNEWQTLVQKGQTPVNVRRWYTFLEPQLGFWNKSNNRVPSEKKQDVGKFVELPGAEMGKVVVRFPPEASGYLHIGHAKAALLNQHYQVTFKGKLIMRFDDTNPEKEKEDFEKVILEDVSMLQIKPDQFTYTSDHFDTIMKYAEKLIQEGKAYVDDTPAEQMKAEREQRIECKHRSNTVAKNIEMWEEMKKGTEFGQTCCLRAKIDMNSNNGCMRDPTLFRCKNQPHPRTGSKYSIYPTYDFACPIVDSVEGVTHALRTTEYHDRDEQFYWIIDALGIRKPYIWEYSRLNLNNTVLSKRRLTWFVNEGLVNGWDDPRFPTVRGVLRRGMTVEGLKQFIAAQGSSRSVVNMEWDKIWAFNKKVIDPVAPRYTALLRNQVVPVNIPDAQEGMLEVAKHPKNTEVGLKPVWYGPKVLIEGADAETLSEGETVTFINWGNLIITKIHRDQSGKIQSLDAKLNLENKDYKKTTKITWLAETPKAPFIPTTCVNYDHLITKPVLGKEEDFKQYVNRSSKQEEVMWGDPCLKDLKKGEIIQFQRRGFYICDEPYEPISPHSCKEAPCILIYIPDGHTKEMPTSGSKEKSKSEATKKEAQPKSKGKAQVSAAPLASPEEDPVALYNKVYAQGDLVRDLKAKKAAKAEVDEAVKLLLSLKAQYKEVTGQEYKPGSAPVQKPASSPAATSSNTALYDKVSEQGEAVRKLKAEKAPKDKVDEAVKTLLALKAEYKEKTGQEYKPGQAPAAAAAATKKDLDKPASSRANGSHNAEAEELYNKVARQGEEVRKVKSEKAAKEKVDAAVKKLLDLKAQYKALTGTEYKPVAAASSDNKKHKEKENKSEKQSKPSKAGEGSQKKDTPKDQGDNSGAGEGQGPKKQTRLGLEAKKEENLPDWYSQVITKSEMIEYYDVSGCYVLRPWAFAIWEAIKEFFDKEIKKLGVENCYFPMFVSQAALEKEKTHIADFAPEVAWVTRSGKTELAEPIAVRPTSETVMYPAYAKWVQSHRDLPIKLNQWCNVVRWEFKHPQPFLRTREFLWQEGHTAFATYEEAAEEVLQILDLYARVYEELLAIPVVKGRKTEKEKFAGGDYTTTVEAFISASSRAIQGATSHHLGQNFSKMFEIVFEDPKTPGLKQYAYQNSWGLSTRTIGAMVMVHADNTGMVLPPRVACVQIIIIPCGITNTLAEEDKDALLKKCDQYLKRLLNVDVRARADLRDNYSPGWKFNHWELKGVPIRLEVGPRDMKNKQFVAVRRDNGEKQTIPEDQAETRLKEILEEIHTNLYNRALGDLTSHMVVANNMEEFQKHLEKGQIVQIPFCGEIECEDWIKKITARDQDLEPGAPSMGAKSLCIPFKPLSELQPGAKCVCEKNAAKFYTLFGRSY
UniProt Q6INS0: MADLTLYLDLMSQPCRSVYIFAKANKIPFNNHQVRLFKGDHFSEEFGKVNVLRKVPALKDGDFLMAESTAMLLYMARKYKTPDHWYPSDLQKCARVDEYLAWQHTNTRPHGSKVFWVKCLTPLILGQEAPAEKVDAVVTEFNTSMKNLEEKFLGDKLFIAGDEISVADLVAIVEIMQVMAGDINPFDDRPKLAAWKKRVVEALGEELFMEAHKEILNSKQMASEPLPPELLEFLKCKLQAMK
UniProt P51469: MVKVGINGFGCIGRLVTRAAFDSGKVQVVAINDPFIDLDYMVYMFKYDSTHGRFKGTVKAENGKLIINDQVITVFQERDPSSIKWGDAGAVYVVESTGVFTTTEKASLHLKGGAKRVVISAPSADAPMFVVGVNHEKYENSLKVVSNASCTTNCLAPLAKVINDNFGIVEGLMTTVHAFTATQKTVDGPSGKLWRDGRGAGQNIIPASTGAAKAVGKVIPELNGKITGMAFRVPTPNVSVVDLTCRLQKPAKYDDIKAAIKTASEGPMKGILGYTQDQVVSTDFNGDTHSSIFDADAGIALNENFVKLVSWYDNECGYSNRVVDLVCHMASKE
UniProt Q6DJQ1: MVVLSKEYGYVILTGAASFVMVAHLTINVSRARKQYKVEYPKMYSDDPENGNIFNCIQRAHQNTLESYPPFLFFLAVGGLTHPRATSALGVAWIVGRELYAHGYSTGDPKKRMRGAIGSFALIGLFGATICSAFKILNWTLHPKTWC
UniProt Q7T0P9: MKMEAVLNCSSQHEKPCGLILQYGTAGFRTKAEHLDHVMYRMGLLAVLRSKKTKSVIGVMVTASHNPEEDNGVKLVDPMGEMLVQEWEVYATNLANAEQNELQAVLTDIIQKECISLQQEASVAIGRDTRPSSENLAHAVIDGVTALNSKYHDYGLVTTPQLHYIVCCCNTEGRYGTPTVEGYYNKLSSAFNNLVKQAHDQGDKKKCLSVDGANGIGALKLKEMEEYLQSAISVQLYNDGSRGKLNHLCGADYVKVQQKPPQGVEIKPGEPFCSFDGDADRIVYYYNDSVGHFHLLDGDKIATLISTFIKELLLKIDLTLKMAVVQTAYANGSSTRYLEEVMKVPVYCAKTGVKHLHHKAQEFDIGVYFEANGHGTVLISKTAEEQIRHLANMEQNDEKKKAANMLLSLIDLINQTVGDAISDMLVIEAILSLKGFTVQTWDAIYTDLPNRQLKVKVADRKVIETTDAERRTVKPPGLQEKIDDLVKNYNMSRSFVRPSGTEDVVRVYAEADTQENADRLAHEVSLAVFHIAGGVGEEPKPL
UniProt A2RV94: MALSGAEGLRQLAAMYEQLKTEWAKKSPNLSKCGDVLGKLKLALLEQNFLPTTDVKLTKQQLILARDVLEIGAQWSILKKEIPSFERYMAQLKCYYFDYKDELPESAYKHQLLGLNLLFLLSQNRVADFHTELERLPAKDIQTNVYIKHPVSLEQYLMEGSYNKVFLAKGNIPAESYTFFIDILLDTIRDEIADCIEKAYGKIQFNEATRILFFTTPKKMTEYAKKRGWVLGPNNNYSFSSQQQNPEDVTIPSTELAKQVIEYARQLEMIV
UniProt Q66IX2: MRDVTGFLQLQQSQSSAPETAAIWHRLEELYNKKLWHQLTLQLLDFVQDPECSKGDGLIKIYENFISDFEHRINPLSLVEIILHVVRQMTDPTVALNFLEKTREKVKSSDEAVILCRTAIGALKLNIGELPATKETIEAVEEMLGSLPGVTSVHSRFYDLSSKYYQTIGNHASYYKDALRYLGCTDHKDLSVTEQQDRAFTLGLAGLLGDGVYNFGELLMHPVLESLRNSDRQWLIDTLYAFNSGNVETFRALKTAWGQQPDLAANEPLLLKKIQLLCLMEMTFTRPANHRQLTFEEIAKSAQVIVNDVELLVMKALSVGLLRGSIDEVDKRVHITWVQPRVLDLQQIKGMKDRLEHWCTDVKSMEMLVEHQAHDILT
UniProt Q52KW8: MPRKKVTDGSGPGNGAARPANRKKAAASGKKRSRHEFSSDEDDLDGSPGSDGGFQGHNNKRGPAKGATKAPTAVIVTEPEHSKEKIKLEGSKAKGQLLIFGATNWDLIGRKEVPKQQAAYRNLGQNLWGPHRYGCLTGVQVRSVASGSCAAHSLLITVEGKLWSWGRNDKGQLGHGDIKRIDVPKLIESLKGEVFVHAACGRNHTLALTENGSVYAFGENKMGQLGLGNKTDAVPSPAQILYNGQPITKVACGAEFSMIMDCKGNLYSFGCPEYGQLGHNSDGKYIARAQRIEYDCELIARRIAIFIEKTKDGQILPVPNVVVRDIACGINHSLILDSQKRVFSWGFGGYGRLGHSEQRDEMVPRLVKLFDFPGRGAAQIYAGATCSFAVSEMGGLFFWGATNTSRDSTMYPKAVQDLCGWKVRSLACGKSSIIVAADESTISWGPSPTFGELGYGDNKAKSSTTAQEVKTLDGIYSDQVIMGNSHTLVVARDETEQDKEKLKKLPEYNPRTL

B1: serpin family A member 6 (protein, UniProt Q00387 17-436)
chain: SVTEISLDNKHRHRHEQQGHHDSAKHGHQKDKQQQEQIKNDEGKLTKEEKILSEENSDFSVNLFNQLSTESKRSPRKNIFFSPISISAAFYMLALGAKSETHQQILKGLSFNKKKLSESQVHEAFKRLIEDSNNPMKAHQFTIGNALFVEQTVNILKGFEENVKHYYQAGVFPMNFKDPDNAKKQLNNYVKDKTHGVIQEMIRELDSNTEMVLVNYVLYKGEWANNFNPTLTQKSLFSVDKNTNVTVQMMNRLGLYRTYQDDDCKIIELPYKNDTAMLLVVPQLGKIQELVLTSKLINHWYESLATSIVDLYMPTFSISGKVVLKDTLRKMGISDIFTDKADLTGISEQIKLKVSMASHNAVLNVNEFGTEAVGATSAQASPTKLFPPFLIDSPFLVMIYSRTLGSQLFMGKVMDPTNAQ
B2: ribonucleotide reductase M1 (protein, UniProt H1A8Z1 1-797)
chain: MHVIKRDGRQERVMFDKITSRIQKLCYGLNLEFVDPAQITMKVIQGLYSGVTTIELDTLAAETAATLTTKHPDYAILAARVAVSNLHKETKKTFSDVMEDLYNYVNPLNSKHSPMVSKETLDIVLANKDRLNSSIIYDRDFSYNFFGFKTLERSYLLKINGKVAERPQHMLMRVSVGIHKTDIDAAIETYNLLSEKWFTHASPTLFNAGTNRPQLSSCFLLCMKDDSIEGIYDTLKQCALISKSAGGIGVAVSCIRATGSYIAGTNGNSNGLVPMLRVYNNTARYVDQGGNKRPGAFAIYLEPWHYDVFDFLDLKKNTGKEEQRARDLFYAMWIPDLFMKRVENNLDWSLMCPHECPGLEEVWGDKFEELYEKYEREGRTRKVVKAQQVWHAIIESQTETGTPYMLYKDACNRKSNQQNLGTIKCSNQCTEIVEYTSDKEVAVCNLASLALNMYVTPERSFDFKKLADVTKVIVRNLNKIIEINFYPVPEAEYSNKKHRPIGIGVQGLADAFILMRYPFESEKAQMLNKQIFETIYYAALESSCELAKELGPYETYEGCPVSKGILQYDMWNVTPTDLWDWTALKEKIAKYGIRNSLLLAPMPTASTAQILGNNESIEPYTSNIYTRRVLSGEFQIVNPHLMKDLTEQGLWNEEMKNQIIANNGSIQNVPDIPADLKELYKTVWEISQKTVITMAADRGAFIDQSQSLNIHVAEPNYGKLTSMHFYGWKQGLKTGMYYLRTRPAANPIQFTLNKEKLKEKELITMETTEKDKEEKEKNKAAMVCSLENRDECLMCGS
B3: programmed cell death 6-interacting protein (Alix), endogenous in Xenopus embryos (protein, UniProt Q9W6C5-1 1-867)
chain: MATFISVPLKKTSEVDLVKPLSKYIHNTYPSGEDQTEYCRAVDELNKLRKSAVGRPLDKHETSLETVMRYYDQLCSVEPKFPFTESQLCLTFTWKDAFDKGSIFGGSVKLALPSLGYEKTCVLFNIGALASQIASEQNLDNDEALKAASKFYQLASGAFSHIKDTVLSSLNRDPTVDISPDTVGTLSLIMLAQAQEVFFLKATRDKMKDAVIAKLANQAADYYGDAFKQCQYKDTLSKEVFPILAAKHCIMQAHAEYHQSVLAKQQKKFGEEIGRLQHASDLVKTVSSRYDEYVNVKDLADKINRALTAAKKDNDFIYHDRVPDLKDLDPVGKASLVKSTPVNVPLSQKYTDLFEKMVPLAVQQCLSVYNQRKSELINSTIAQMRDATIFANGVLASLNLPAAVEDVSGDSIPQSILNKSKTVIEQGGIQTIGQLIRDLPELLQRNKEILEESLKFLDEEEATDNDLKAKFKDRWQRTPSTELYKPLRSEGSNFRNVLDKAIGADAVVKERYQSHREAIVILCKPEAELNAAIPSANPAKTMQGSEVVTVLKSLLNKLDDMKKEREQLENDIKSVNFDMTTKFLTALAQDGAVNEEAISVTELDQIYGSYTYKVQENLKKQEDLLNNIQSAHQEFSKMKQSNSEANLREEVLKNLAVGHDNYIELVANLKEGTKFYNDLTDILLKFQCKCSDIVFARKTERDELLKDIQQSIAREPSAPSIPQVPSYQSAPSSISTNIATSSIPTPAPRTVFSAKQPPPRPPPPAMPSASPVPASAAQASNPAPTAAADSSQPPSNTIPSQAQGPPYPSYPGYPGYYGMPMPVGYNPYMYGQQTIPPYMYQPPSGQPPYPAQQPSFSYPQQPFFPPQ
B4: endoplasmic reticulum oxidoreductase alpha (protein, UniProt Q6DD71 21-465)
chain: QEAPASAAQRCFCQVTGYLDDCTCDVETIDRFNNHGLFPKLQQLVASDYFRYYKVNLKKSCPFWEDNSHCGVRDCAVNPCSSDEVPGFKPPGFKYTEEANHVHEDVDDCEKEKRLSAVDESLSVETQEAMLKWNRHDDSSDNFCEVDDEESPDAEYVDLLKNPERFTGYKGADTWRIWNSIYEENCFKPKAVQRPLNPLTSSRGENEGNMFYNWLDGLCVEKRAFYRLISGLHASINIHLCATYLLKDTWMDKIWGHNVAEFQKRFDATLTHGEGPKRLRNLYFIYLIELRAISKVLPFFERSNFLLYTGNETKDKETKKILLDVLQDARDFPLHFDENSLFSGDKKEAAKLKEDFRQHFRNISKIMDCVGCFKCRLWGKLQTQGLGTALKILFSEKQIENLSESNQPSAFHLTRQEIVALFNAFGRISTSVQELENFRKLLEKV

Target: GST-Trim2 (Xenopus tripartite motif containing 2) (Xenopus laevis) (UniProt Q6GQA4)
Test: affinity purification with mass spectrometry; GST-Trim2 as bait on Xenopus embryonic lysates (NF stages 30-36), GSH-Sepharose, LC-MS/MS on an LTQ Orbitrap; three independent biological replicates; enrichment relative to GST alone; only the target purified

Molecule | binding
CNDP dipeptidase 2 (from UniProt Q6DJK5) | binds
acetyl-CoA acyltransferase 2 (from UniProt Q7ZTL1) | binds
adenylosuccinate lyase (from UniProt Q7ZY16) | binds
aspartyl-tRNA synthetase (from UniProt Q6GQA7) | binds
bifunctional purine biosynthesis protein (from UniProt A0A8J0U0U7) | binds
glutamyl-prolyl-tRNA synthetase (from UniProt B1WBE0) | binds
glutathione S-transferase theta 1 (from UniProt Q6INS0) | binds
glyceraldehyde-3-phosphate dehydrogenase (from UniProt P51469 1-333) | binds
microsomal glutathione S-transferase 3 (from UniProt Q6DJQ1) | binds
phosphoglucomutase 3 (from UniProt Q7T0P9) | binds
proteasome 26S subunit, non-ATPase 8 (from UniProt A2RV94) | binds
proteasome 26S subunit, non-ATPase 13 (from UniProt Q66IX2) | binds
regulator of chromosome condensation 2 (from UniProt Q52KW8 1-513) | binds
B1 | binds
B2 | binds
B3 | binds
B4 | binds
